Measured values reported in PMC4982761.
Results are given in words; binding and its absence hold for the method and conditions named. In cells and extracts the contact can be indirect. A result given as binding can be weak or reduced; the word gives no strength. Sequences can lack the tags named with a protein.

Target: HA-Nkx2-5 deletion mutant lacking the homeodomain (HD)
Experiment: co-IP; HA-Nkx2-5, Flag-Xrn2 and their deletion mutants cotransfected into C3H10T1/2 cells; immunoprecipitated from nuclear extracts with M2 (Flag) or HA antibody; Western blotting

- binding: binds
B1: Flag-Xrn2 (enzyme, UniProt Q9DBR1 1-951)
chain: MGVPAFFRWLSRKYPSIIVNCVEEKPKECNGVKIPVDASKPNPNDVEFDNLYLDMNGIIHPCTHPEDKPAPKNEDEMMVAIFEYIDRLFNIVRPRRLLYMAIDGVAPRAKMNQQRSRRFRASKEGMEAAVEKQRVREEILAKGGFLPPEEIKERFDSNCITPGTEFMDNLAKCLRYYIADRLNNDPGWKNLTVILSDASAPGEGEHKIMDYIRRQRAQPNHDPNTHHCLCGADADLIMLGLATHEPNFTIIREEFKPNKPKPCALCNQFGHEVKDCEGLPREKKGKHDELADSLPCAEGEFIFLRLNVLREYLERELTMASLPFPFDVERSIDDWVFMCFFVGNDFLPHLPSLEIREGAIDRLVNIYKNVVHKTGGYLTESGYVNLQRVQMIMLAVGEVEDSIFKKRKDDEDSFRRRQKEKRKRMKRDQPAFTPSGILTPHALGSRNSPGCQVASNPRQAAYEMRMQRNSSPSISPNTSFASDGSPSPLGGIKRKAEDSDSEPEPEDNVRLWEAGWKQRYYKNKFDVDAADEKFRRKVVQSYVEGLCWVLRYYYQGCASWKWYYPFHYAPFASDFEGIADMSSEFEKGTKPFKPLEQLMGVFPAASGNFLPPTWRKLMSDPDSSIIDFYPEDFAIDLNGKKYAWQGVALLPFVDERRLRAALEEVYPDLTPEENRRNSLGGDVLFVGKLHPLRDFILELYQTGSTEPVDVPPELCHGIQGTFSLDEEAILPDQTVCSPVPMLRDLTQNTAVSINFKDPQFAEDYVFKAAMLPGARKPATVLKPGDWEKSSNGRQWKPQLGFNRDRRPVHLDQAAFRTLGHVTPRGSGTSVYTNTALPPANYQGNNYRPLLRGQAQIPKLMSNMRPQDSWRGPPPLFQQHRFERSVGAEPLLPWNRMIQNQNAAFQPNQYQMLGGPGGYPPRRDDHRGGRQGYPREGRKYPLPPPSGRYSWN
